From the supplement of paper PMC10849652
The other results are listed elsewhere or left out.

Sequences of proteins named here, by UniProt entry; tags and fusion partners are left off. A change or cut given only in a name is not applied to a line headed by its entry.
UniProt O95476: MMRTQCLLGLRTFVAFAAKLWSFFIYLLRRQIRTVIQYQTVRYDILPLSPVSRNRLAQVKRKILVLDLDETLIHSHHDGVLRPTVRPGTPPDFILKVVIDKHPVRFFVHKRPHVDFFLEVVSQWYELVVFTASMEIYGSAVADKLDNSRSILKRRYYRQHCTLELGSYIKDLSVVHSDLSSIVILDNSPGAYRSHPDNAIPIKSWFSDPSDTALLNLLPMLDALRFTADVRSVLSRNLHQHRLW
UniProt Q9NSA3: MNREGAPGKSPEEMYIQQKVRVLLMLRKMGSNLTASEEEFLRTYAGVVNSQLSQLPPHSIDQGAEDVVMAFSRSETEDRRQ
UniProt Q07973: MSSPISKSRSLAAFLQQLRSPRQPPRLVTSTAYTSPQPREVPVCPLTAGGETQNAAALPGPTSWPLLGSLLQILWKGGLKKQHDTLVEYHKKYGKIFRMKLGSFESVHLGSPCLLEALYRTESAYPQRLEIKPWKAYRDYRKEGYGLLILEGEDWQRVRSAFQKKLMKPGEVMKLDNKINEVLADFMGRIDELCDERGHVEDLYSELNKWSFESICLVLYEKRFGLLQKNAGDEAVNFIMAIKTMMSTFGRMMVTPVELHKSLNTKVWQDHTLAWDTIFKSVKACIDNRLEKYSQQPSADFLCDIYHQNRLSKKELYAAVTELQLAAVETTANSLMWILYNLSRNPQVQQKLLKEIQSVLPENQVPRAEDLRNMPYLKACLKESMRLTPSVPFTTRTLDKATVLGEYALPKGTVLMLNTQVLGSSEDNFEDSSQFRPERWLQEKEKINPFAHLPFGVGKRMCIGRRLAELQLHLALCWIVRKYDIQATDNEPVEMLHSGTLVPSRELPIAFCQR
UniProt Q8WV16: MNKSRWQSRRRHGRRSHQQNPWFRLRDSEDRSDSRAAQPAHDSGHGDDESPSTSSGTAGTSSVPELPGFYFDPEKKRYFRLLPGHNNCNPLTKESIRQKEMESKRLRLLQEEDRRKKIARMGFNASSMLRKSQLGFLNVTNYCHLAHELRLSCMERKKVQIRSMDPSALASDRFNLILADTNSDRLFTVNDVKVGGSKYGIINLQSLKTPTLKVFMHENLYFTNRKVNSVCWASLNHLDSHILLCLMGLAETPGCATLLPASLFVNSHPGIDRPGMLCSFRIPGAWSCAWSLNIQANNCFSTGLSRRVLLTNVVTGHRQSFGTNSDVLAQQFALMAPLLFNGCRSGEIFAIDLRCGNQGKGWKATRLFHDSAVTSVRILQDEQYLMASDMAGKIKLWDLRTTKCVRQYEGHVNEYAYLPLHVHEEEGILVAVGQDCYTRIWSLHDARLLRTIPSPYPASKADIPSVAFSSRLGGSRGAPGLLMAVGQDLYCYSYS
UniProt Q9BWK5: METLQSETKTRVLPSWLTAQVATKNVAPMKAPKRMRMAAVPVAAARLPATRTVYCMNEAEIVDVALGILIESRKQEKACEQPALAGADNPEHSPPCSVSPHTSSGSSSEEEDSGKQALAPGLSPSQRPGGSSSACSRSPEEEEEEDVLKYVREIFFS
UniProt Q6ZWL3: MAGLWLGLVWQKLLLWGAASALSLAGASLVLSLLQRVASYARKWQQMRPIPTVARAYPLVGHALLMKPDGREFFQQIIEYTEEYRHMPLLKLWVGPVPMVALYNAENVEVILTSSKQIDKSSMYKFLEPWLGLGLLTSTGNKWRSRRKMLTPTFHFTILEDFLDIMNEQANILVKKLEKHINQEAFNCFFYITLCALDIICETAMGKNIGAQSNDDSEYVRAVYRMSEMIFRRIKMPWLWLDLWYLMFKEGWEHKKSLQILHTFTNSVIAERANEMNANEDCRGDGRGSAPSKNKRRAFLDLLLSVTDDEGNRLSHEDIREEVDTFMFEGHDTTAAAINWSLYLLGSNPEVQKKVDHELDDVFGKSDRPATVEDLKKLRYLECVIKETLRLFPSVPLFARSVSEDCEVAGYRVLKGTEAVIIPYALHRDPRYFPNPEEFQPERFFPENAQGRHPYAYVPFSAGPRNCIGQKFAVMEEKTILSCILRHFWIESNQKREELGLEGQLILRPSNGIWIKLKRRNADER
UniProt Q96DE9: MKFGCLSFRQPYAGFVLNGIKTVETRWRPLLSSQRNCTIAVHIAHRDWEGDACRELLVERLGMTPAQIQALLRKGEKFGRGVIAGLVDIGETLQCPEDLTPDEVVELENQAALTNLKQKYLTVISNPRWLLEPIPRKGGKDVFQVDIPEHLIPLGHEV
UniProt Q05D32: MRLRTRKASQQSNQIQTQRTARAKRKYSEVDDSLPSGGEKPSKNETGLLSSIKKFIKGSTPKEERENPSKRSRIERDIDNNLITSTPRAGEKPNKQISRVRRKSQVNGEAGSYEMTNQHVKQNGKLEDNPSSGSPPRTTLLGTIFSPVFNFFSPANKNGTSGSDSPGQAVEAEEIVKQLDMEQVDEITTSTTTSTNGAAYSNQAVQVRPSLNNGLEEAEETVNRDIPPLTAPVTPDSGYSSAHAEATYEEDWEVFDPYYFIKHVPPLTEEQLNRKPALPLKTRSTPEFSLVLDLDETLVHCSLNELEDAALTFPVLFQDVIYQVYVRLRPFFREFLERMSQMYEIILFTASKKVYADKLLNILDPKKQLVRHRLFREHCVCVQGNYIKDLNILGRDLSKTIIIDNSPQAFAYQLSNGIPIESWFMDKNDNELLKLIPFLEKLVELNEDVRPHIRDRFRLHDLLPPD
UniProt Q53TN4: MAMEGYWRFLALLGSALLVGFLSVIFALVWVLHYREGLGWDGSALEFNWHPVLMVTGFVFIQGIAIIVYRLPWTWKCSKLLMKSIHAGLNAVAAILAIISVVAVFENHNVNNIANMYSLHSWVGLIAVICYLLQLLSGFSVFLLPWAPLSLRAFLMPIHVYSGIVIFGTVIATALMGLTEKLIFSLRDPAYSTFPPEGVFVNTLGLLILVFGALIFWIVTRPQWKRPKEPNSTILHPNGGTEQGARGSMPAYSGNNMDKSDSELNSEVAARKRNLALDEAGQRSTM
UniProt Q9UBX1: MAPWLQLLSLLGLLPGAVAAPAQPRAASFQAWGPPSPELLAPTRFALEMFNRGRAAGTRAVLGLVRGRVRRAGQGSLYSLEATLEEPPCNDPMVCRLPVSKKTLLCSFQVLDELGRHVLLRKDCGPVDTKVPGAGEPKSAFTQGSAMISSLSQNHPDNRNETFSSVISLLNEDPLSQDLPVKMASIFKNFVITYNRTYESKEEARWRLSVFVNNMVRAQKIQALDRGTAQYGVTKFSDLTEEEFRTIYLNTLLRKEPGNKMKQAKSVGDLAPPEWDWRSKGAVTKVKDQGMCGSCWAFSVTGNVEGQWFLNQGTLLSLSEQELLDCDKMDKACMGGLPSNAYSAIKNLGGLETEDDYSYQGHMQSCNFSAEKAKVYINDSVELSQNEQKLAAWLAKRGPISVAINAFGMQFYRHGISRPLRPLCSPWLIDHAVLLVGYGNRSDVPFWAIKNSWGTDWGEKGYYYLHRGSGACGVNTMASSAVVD
UniProt Q14999: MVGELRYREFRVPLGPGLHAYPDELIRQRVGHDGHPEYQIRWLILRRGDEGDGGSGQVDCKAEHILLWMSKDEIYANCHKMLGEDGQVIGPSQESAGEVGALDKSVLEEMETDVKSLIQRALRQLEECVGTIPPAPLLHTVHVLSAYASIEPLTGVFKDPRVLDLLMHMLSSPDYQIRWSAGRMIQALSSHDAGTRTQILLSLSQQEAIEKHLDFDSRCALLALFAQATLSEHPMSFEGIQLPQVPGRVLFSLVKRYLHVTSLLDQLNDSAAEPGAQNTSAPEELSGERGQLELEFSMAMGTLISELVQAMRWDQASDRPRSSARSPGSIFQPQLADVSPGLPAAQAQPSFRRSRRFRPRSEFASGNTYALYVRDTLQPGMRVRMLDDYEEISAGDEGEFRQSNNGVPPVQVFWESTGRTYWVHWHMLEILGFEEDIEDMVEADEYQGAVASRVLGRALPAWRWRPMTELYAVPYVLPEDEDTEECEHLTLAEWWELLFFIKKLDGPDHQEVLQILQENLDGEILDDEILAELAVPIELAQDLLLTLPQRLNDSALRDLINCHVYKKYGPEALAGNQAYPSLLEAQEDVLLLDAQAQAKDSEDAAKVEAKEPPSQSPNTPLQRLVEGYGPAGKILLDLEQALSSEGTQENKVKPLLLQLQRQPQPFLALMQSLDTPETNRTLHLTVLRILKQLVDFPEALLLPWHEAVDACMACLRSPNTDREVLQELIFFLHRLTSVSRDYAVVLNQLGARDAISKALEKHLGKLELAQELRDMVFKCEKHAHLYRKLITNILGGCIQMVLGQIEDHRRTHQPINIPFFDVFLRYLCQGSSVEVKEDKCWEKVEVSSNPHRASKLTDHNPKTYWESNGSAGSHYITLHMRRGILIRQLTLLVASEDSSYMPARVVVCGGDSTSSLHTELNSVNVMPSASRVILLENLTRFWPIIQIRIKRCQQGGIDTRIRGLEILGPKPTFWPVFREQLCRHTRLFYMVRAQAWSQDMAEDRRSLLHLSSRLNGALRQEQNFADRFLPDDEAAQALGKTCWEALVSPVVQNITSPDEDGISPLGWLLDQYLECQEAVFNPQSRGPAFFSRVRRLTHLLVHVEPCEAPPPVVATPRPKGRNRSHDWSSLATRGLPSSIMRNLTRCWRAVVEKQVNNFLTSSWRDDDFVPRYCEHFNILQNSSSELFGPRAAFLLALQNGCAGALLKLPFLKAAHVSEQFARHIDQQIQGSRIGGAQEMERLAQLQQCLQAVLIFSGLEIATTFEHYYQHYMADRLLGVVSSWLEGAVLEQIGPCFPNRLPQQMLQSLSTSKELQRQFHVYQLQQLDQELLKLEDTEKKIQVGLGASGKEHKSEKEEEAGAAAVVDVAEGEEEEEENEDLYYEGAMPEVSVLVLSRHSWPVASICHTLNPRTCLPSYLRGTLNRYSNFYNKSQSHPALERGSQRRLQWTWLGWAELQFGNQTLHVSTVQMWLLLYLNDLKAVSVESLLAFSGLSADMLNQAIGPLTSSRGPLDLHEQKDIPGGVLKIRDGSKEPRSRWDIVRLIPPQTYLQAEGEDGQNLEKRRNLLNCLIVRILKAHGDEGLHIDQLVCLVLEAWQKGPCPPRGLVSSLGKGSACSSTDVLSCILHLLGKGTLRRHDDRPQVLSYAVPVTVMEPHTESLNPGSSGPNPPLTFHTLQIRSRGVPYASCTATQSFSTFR
UniProt Q9GZU7: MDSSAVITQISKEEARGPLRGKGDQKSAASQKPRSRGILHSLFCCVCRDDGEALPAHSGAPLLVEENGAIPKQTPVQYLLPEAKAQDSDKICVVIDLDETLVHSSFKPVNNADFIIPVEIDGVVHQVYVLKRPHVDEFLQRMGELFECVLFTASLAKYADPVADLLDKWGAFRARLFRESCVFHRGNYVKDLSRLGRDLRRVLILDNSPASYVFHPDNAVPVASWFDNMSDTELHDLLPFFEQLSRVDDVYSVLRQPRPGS
UniProt Q9BTE7: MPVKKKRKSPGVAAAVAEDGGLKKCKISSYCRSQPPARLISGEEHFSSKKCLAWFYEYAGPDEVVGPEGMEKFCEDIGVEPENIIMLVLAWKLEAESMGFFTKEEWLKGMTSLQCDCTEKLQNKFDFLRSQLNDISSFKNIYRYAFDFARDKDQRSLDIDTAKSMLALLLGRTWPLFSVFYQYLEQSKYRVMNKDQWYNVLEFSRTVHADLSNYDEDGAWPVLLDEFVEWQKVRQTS
UniProt P00167, whole entry, looked up: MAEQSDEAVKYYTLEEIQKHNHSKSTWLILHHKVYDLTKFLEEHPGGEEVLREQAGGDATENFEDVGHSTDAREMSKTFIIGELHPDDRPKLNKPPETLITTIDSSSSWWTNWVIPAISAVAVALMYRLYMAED
UniProt P49447: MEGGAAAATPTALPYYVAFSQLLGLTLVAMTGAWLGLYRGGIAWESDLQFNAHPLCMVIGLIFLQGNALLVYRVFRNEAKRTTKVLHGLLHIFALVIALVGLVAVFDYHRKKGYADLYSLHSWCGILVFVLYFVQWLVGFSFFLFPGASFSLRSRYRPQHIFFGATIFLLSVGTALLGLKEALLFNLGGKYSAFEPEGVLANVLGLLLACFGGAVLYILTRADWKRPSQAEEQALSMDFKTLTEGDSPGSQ

Compound: Cc1cc(Nc2cc(CN3CCOCC3)c3nc(C)c(Cc4ccc(Cl)cc4F)n3n2)n[nH]1 [gandotinib]
Test: log2 fold change, soluble protein after heating vs DMSO (PISA); higher = thermal stabilisation; K562 cells, 10 uM, 30 min; active = over 0.2 and 3.5 SD of the protein, either way, in both replicates (recomputed)
How it was run: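 Quantification of soluble protein used TMTpro 16plex LC-MS/MS, with channel sums equalised. Samples were the supernatant after 21,000xg for 90 min of pooled aliquots from K562 cells (2×10^6 cells/mL) treated with 10 μM compound for 30 min, heated for 3 min over 48°C-58°C, and extracted in PBS with 0.5% NP-40 at 4°C. Values, from duplicates, describe thermal stability against control samples on a log2 fold-change scale.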

log2 fold change, inactive:
CTDNEP1 (UniProt O95476) -0.013, CTNNBIP1 (UniProt Q9NSA3) -0.065, CYP24A1 (UniProt Q07973) 0.535, DCAF4 (UniProt Q8WV16) 0.07, CYREN (UniProt Q9BWK5) -0.053, CYP4V2 (UniProt Q6ZWL3) 0.071, CXorf40B (UniProt Q96DE9) -0.015, CTDSPL2 (UniProt Q05D32) -0.016, CYBRD1 (UniProt Q53TN4) 0.157, CTSF (UniProt Q9UBX1) 0.024, CUL7 isoform 2 (UniProt Q14999) 0.44, CTDSP1 (UniProt Q9GZU7) -0.065, DCUN1D5 (UniProt Q9BTE7) -0.156, CYB5A (UniProt P00167) 0.082, CYREN isoform 4 (UniProt Q9BWK5) 0.018, CYB561 (UniProt P49447) -0.249

log2 fold change, active:
DCAF12 (UniProt Q5T6F0) -0.735
